PubChem BioAssay AID504444 (National Center for Advancing Translational Sciences (NCATS), 2011)
In all, about 360,000 compounds went through this assay and about 7,500 (2.1%) were called active. The inconclusive results got no clear call from the source; some entries with a clear call stand among them for comparison. Calls follow the shape of the dose curve; as a rule, active = well fitted inhibition curve with a large enough effect; inconclusive = small, poorly fitted or top-dose-only effect, or effect the other way; inactive = flat fitted curve, though single readings scatter. Where the call is inconclusive, the potency comes from a doubtful curve fit.

assay: Nrf2 qHTS screen for inhibitors; conditions: A549 ARE-Fluc reporter, luciferase luminescence, 18-24 h; activity change, negative = inhibition: at 46 µM (top of the series); also: nearly all actives have a fitted effect of over 60% in size
In short: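 Reporter: ARE-Fluc in A549. Exposure: 18-24 h, 37 °C, 5% CO2, 5% FBS OPTI-MEM. Readouts: fluorescent cytotoxicity (CellTiter-Fluor), then luminescent Nrf2 signal after BugLite.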
% is scaled to controls: 0 for no effect and ±100 for the full control effect; potency is read from the fitted curve at half-maximal effect.

Q: With `Cc1cccc(NC(=O)CSc2nc(C)c(CC(=O)c3ccc(Br)cc3)c(C)c2C#N)c1C` as the compound, how does the Potency read?
A: inconclusive: 6.51 µM [falling, single point]

Q: Which Potency does the source give for `O=C(CN(C(=O)Cn1nnc(-c2ccc(F)cc2)n1)c1ccc(F)c(Cl)c1)NCC1CCCO1` (stereo unspecified) here?
A: inconclusive: 6.51 µM [activator, partial curve, poor fit]

Q: For `CCc1nnc(NC(=O)CSc2nc(-c3ccccc3)cc(-c3ccc(F)cc3)c2C#N)s1`, which Potency is on record?
A: inconclusive: 4.61 µM [falling, full curve, poor fit]

Q: Which Potency does the source give for `COc1ccccc1N1CCN(CC(O)c2c(C)[nH]c3ccccc23)CC1` (stereo unspecified) here?
A: inconclusive: 1.84 µM [falling, partial curve, poor fit]

Q: Which Potency does the source give for `Cc1oc(-c2cccc(Cl)c2)nc1CN1CCCC(C(=O)NC(C)c2ccc3c(c2)OCCO3)C1` (stereo unspecified) here?
A: inconclusive: 18.4 µM [falling, single point]

Q: For `Cc1c(C(=O)N2CCOCC2)[nH]c2ccc(OCc3ccccc3)cc12`, which Potency is on record?
A: inconclusive: 20.6 µM [falling, single point]

Q: With `Nc1nc(-c2cc(Cl)cc(Cl)c2OC(F)F)cs1` as the compound, how does the Potency read?
A: inconclusive: 29.1 µM [falling, single point]

Q: For `O=C(Nc1c2c(nn1-c1ccc(Cl)cc1)CS(=O)(=O)C2)c1ccc2c(c1)OCO2`, which “activity change, negative = inhibition” value is on record?
A: inactive: 9.39%

Q: Which Potency does the source give for `CSCC[C@H](NC(=O)OC(C)(C)C)c1nnc(SCc2ccc(F)cc2)o1` here?
A: active: 25.9 µM

Q: Which Potency does the source give for `Cc1ccc(-c2cn(-c3ccc(SC(F)F)cc3)c3[n+]2CCC3)cc1` here?
A: inconclusive: 8.2 µM [falling, partial curve]

Q: With `Nc1ccc2c(c1)OC1(CCCCC1)O2` as the compound, how does the Potency read?
A: inconclusive: 5.17 µM [falling, full curve]

Q: For `CCc1nnc(NC(=O)c2ccc(Cl)c(S(=O)(=O)N3CCc4ccccc4C3)c2)s1`, which Potency is on record?
A: active: 18.4 µM

Q: For `CCOC(=O)N1CCN(C(=O)c2cc(COc3ccc4ncccc4c3)on2)CC1`, which Potency is on record?
A: active: 18.4 µM

Q: With `N#Cc1ccc(Oc2nc(C(N)=O)cc(-c3ccccc3)n2)cc1` as the compound, how does the Potency read?
A: inconclusive: 4.11 µM [activator, single point]

Q: With `COc1ccccc1/C=C/C(=O)OCC(=O)Nc1ccc(Cl)cn1` as the compound, how does the Potency read?
A: inconclusive: 18.4 µM [falling, single point]

Q: Which Potency does the source give for `Cc1noc(C)c1CSCC(=O)N(C)CC(=O)Nc1ccc(Cl)c(C(F)(F)F)c1` here?
A: inconclusive: 20.6 µM [falling, partial curve, poor fit]

Q: With `CCC(=O)OCC(=O)C1(OC(=O)CC)[C@H](C)C[C@H]2[C@H]3[C@H]([C@@H](O)C[C@@]21C)[C@@]1(C)C=CC(=O)C=C1C[C@H]3Cl` (stereo partly specified) as the compound, how does the Potency read?
A: active: 0.0517 µM

Q: For `COc1ccccc1NC(=O)NC(=O)c1ccccc1`, which Potency is on record?
A: inconclusive: 2.91 µM [activator, partial curve]

Q: With `COc1cccc(/C=N/Nc2ccnc(=O)[nH]2)c1O` as the compound, how does the “activity change, negative = inhibition” value read?
A: inactive: 1.86%

Q: With `COCCNc1nc2c(c(=O)n(Cc3cccc(Br)c3)c(=O)n2C)n1C` as the compound, how does the Potency read?
A: inconclusive: 20.6 µM [falling, partial curve, poor fit]

Q: Which Potency does the source give for `COc1ccc(NC(=O)c2cc3c(=O)n(C)c4ccccc4c3n2C)cc1OC` here?
A: inconclusive: 0.259 µM [falling, partial curve, poor fit]

Q: With `COc1ccc(N(CC(=O)Nc2cc(OC)cc(OC)c2)S(=O)(=O)c2c(C)n[nH]c2C)cc1` as the compound, how does the Potency read?
A: inconclusive: 0.731 µM [falling, partial curve, poor fit]

Q: For `Cc1scc(C(=O)N/N=C/c2ccc(Cl)s2)c1C`, which Potency is on record?
A: inconclusive: 25.9 µM [activator, single point]

Q: Which Potency does the source give for `COc1ccc(C(=O)Cc2ccc(OC)c(OC)c2)c(OC)c1` here?
A: inconclusive: 29.1 µM [falling, single point]

Q: Which Potency does the source give for `CCn1cc(C(=O)O)c(=O)c2cc(F)c(N/N=C/c3ccccc3)cc21` here?
A: inconclusive: 29.1 µM [falling, partial curve, poor fit]

Q: Which Potency does the source give for `CC(C)N(Cc1ccccc1)S(=O)(=O)c1ccc(-c2cc(C(F)(F)F)on2)s1` here?
A: inconclusive: 29.1 µM [falling, single point]

Q: For `CC(=O)Nc1cccc(NC(=O)c2c(-c3ccccc3Cl)noc2C)c1`, which Potency is on record?
A: inconclusive: 16.4 µM [falling, single point]

Q: With `CSc1cc(-c2ccc(Cl)cc2)[nH]c(=O)c1C#N` as the compound, how does the Potency read?
A: inconclusive: 4.11 µM [falling, full curve, poor fit]

Q: For `COc1cc(-c2c(C#N)c(N)nc3c2CCCC3)cc(OC)c1OC`, which “activity change, negative = inhibition” value is on record?
A: inactive: 1.19%

Q: Which Potency does the source give for `C/C(=N\Nc1ccc(S(=O)(=O)N2CCCCC2)cn1)c1cccc(Br)c1` here?
A: inconclusive: 29.1 µM [falling, single point]

Q: For `Cc1nc2sc3c(c2c(=O)n1NC(=O)CCBr)CCCC3`, which Potency is on record?
A: inconclusive: 23.1 µM [falling, single point]

Q: With `CC(=O)Cc1nsc(NC(=O)c2ccccc2)n1` as the compound, how does the Potency read?
A: inconclusive: 16.4 µM [activator, partial curve, poor fit]

Q: Which Potency does the source give for `CNc1nc(-c2ccc3c(c2)CCN3C(=O)c2ccc(F)cc2)cs1` here?
A: inconclusive: 23.1 µM [falling, single point]

Q: For `Cc1occc1C(=O)N/N=C/C(Br)=C/c1ccccc1`, which Potency is on record?
A: inconclusive: 8.2 µM [activator, partial curve, poor fit]

Q: With `N#CCC(=N)N1CCN(c2ccc(F)cc2)CC1` as the compound, how does the “activity change, negative = inhibition” value read?
A: inactive: 3.67%

Q: Which Potency does the source give for `COc1cccc(CNS(=O)(=O)c2ccc(N3CCCC3=O)cc2)c1` here?
A: inconclusive: 16.4 µM [falling, partial curve]

Q: For `COc1ccc2[nH]c(=O)c(CN(Cc3cccs3)C(=S)Nc3cccc(C)c3)cc2c1`, which Potency is on record?
A: active: 2.06 µM

Q: With `COc1ncccc1-c1nnn(-c2ccccc2Br)n1` as the compound, how does the “activity change, negative = inhibition” value read?
A: inactive: 29%

Q: Which Potency does the source give for `Cc1ccc(NS(=O)(=O)c2ccc(Cl)c(C(=O)Nc3ccccc3-c3nc4ccccc4[nH]3)c2)cc1C` here?
A: active: 23.1 µM

Q: With `COc1ccc(OC)c(/C(C)=N\NC(=O)c2cc3cc(Cl)ccc3n2C)c1` as the compound, how does the Potency read?
A: inconclusive: 29.1 µM [falling, single point]

Q: Which Potency does the source give for `O=C(NCCCc1nc2ccccc2n1Cc1ccc(Cl)cc1)C1CCCCC1` here?
A: inconclusive: 20.6 µM [falling, partial curve, poor fit]

Q: With `O=C(c1sc2cc(Cl)ccc2c1Cl)N1CCN(CCc2ccccn2)CC1` as the compound, how does the Potency read?
A: inconclusive: 29.1 µM [falling, single point]

Q: For `COc1ccc2c(C)cc(SCC(=O)Nc3ncc(Cl)cc3Cl)nc2c1`, which “activity change, negative = inhibition” value is on record?
A: inactive: -1.21%

Q: With `COc1ccc(/C=C/C(=O)Nc2cccnc2Cl)cc1` as the compound, how does the Potency read?
A: inconclusive: 2.31 µM [activator, partial curve, poor fit]

Q: With `CCOC(=O)C1(Cc2ccccc2C(F)(F)F)CCN(C(=O)c2cc(C)n(C)n2)CC1` as the compound, how does the Potency read?
A: inconclusive: 8.2 µM [activator, partial curve]

Q: For `O=C(N/N=C/c1cccnc1)c1cc(-c2ccccc2)nc2ccccc12`, which “activity change, negative = inhibition” value is on record?
A: inactive: -15.3%

Q: Which Potency does the source give for `COc1cccc(-c2cc(C(=O)Nc3c(C)nn(Cc4ccccc4C)c3C)no2)c1` here?
A: inconclusive: 13 µM [falling, partial curve, poor fit]

Q: With `NC1=NC[C@@H](CC2CCCCC2)N1CCc1cc(C(F)(F)F)cc(C(F)(F)F)c1` as the compound, how does the “activity change, negative = inhibition” value read?
A: inactive: -5.9%

Q: For `CCOC(=O)c1ccc(NC(=S)N2CCC(O)CC2)cc1`, which Potency is on record?
A: inconclusive: 29.1 µM [activator, single point]

Q: With `O=C(CCCl)Nc1nnc(SCC(=O)NC2CCCC2)s1` as the compound, how does the Potency read?
A: inconclusive: 5.8 µM [falling, partial curve, poor fit]

Q: For `Cc1ccc2onc(CC(=O)N3CCN(c4cc(Cl)ccc4C)CC3)c2c1`, which Potency is on record?
A: inconclusive: 23.1 µM [activator, single point]

Q: For `O=C(CCN1C(=O)/C(=C/c2ccccc2)SC1=S)NC1CCS(=O)(=O)C1` (stereo unspecified), which Potency is on record?
A: inconclusive: 29.1 µM [activator, single point]

Q: Which Potency does the source give for `COc1ccc2c(c1)C(=O)[C@@H](O)[C@H](c1ccc(OC)c(Br)c1)O2` here?
A: inconclusive: 29.1 µM [activator, single point]

Q: Which “activity change, negative = inhibition” value does the source give for `N#CCCN1CCN(Cn2c3ccccc3c3ccccc32)CC1` here?
A: inactive: -0.985%

Q: With `Cc1coc(C)c1C(=O)CC1(O)C(=O)N(Cc2ccccc2)c2ccccc21` (stereo unspecified) as the compound, how does the Potency read?
A: inconclusive: 6.51 µM [falling, partial curve, poor fit]

Q: Which Potency does the source give for `O=C(c1ccc(-c2cccc(Cl)c2Cl)o1)N1CCOCC1` here?
A: inconclusive: 4.61 µM [activator, full curve]

Q: Which “activity change, negative = inhibition” value does the source give for `Cc1nc([N+](=O)[O-])cn1CC(=O)c1ccc(F)cc1` here?
A: inactive: 1.12%

Q: Which Potency does the source give for `COc1cc(NC(=O)C2=CC(c3cccs3)=NS(=O)(=O)N2C)cc(OC)c1OC` here?
A: inconclusive: 20.6 µM [falling, single point]

Q: With `COc1cccc(CNC(=O)Cn2ncn3nc(-c4cccs4)cc3c2=O)c1OC` as the compound, how does the Potency read?
A: inconclusive: 25.9 µM [falling, single point]

Q: With `Cc1ccc2[nH]c(=O)c(CN(CCO)C(=O)N(C)C)cc2c1` as the compound, how does the “activity change, negative = inhibition” value read?
A: inactive: 14.6%

Q: For `Cn1c(=O)c([N+](=O)[O-])c(-n2cnc3ccccc32)c2ccccc21`, which Potency is on record?
A: inconclusive: 6.51 µM [activator, partial curve, poor fit]

Q: For `CN(Cc1ccc(Cl)cc1Cl)C(=O)CN1C(=O)NC2(CCCC2)C1=O`, which “activity change, negative = inhibition” value is on record?
A: inactive: -8.05%

Q: For `CCCCOc1ccc(C(=O)Nc2ccc(SC(F)F)cc2)cc1OC`, which “activity change, negative = inhibition” value is on record?
A: inactive: -23.1%

Q: For `Cc1cc(C)n2nc(-c3cnn(C)c3C(F)(F)F)cc2n1`, which Potency is on record?
A: inconclusive: 1.64 µM [falling, partial curve, poor fit]

Q: With `O=C(CCl)Nc1ccc(S(=O)(=O)NC2=NCCCCC2)cc1` as the compound, how does the Potency read?
A: inconclusive: 29.1 µM [falling, single point]

Q: Which Potency does the source give for `O=C(Nc1nc2ccccc2[nH]1)Nc1ccccc1F` here?
A: inconclusive: 29.1 µM [activator, single point]
